From paper PMC3459922
Results are given in words; binding and its absence hold for the method and conditions named. Binding seen in cells or lysates may run through a third protein. Some entries that bind do so weakly or less than the wild type. Tags and fused reporters may be left off the sequences shown.

Protein sequences, listed by entry. Tags and fused reporters are not part of them.
UniProt Q14999: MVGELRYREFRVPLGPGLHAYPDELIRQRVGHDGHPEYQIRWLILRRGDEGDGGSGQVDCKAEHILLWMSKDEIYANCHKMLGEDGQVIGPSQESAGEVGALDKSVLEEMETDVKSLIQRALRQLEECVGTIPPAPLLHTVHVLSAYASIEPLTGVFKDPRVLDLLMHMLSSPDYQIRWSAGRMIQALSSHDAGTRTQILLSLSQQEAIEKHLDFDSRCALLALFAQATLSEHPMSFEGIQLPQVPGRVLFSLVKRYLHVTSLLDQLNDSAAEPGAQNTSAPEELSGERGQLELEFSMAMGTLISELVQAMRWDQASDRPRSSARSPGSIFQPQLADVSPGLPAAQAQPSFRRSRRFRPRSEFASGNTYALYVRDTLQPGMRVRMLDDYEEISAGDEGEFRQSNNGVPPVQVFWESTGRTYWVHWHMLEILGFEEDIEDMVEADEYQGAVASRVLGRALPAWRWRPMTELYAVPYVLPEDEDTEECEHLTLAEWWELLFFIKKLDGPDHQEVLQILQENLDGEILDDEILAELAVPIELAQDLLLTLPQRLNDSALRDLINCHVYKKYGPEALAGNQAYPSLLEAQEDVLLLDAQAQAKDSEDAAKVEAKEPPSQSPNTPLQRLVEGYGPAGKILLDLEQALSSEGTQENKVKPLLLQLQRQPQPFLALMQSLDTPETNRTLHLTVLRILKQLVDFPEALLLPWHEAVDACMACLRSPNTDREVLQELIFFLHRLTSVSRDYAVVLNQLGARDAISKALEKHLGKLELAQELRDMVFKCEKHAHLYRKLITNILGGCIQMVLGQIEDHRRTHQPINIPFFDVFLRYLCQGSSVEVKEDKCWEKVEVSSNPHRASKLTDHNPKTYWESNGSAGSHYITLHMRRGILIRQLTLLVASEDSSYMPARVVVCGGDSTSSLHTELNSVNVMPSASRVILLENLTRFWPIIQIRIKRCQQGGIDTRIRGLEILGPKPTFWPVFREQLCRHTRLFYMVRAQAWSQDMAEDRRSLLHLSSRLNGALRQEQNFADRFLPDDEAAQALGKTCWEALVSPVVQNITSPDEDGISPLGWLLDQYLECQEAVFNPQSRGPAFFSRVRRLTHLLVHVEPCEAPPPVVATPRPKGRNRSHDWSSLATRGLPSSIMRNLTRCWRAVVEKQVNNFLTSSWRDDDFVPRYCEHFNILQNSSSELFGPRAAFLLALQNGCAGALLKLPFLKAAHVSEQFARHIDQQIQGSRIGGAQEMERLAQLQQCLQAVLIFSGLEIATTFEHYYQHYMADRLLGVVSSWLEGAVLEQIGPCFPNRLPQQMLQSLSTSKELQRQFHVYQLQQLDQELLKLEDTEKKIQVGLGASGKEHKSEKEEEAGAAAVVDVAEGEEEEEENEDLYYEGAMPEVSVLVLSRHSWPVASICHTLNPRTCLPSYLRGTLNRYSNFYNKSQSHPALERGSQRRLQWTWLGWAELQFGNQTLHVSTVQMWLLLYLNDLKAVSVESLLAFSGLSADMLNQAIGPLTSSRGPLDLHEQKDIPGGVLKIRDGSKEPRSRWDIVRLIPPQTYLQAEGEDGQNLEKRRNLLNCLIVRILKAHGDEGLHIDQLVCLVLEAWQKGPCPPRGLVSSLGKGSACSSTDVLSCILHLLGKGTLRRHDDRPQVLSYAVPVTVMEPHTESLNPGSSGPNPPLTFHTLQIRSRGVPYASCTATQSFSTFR

Biological target: T1, Myc-Fbw8 (UniProt Q8N3Y1)
T1 sequence: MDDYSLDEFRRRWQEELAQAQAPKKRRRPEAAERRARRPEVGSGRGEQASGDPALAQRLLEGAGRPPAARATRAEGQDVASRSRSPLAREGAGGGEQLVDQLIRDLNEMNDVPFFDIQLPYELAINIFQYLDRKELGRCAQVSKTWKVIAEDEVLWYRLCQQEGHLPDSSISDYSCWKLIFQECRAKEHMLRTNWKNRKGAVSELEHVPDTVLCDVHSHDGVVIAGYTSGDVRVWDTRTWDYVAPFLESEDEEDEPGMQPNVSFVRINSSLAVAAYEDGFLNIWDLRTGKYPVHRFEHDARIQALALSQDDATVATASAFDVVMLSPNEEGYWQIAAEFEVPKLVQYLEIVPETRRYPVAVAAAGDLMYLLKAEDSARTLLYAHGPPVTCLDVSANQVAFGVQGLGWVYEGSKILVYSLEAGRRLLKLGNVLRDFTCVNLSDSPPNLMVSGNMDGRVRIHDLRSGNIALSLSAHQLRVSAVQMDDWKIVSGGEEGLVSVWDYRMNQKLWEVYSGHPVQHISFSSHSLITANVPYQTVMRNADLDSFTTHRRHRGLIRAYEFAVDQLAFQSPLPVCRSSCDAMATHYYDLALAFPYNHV
Assay: co-IP; HeLa cells transfected with HA-CUL7, Flag-TBC1D3 and Myc-Fbw8; lysates (200 µg) immunoprecipitated with anti-TBC1D3 (2C7) or anti-Myc antibodies; immunoblot

binding: binds
Substance: Full-length HA-tagged CUL7 (from UniProt Q14999 1-1698)
